The target of data set [1] is T1, MISIIR (AMHR2) extracellular domain (UniProt Q16671).
T1 sequence (looked up, limits assumed): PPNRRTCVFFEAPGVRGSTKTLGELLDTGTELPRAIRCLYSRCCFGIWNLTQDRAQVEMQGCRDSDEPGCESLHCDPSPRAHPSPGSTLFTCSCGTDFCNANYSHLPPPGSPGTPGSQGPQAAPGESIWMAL
The data set can be described thus: pull-down. To be noted: purified recombinant protein.

For data set [2], the target named is T2, MISIIR (AMHR2) on ovarian cancer cells (Homo sapiens) (UniProt Q16671).
T2 sequence (looked up, limits assumed): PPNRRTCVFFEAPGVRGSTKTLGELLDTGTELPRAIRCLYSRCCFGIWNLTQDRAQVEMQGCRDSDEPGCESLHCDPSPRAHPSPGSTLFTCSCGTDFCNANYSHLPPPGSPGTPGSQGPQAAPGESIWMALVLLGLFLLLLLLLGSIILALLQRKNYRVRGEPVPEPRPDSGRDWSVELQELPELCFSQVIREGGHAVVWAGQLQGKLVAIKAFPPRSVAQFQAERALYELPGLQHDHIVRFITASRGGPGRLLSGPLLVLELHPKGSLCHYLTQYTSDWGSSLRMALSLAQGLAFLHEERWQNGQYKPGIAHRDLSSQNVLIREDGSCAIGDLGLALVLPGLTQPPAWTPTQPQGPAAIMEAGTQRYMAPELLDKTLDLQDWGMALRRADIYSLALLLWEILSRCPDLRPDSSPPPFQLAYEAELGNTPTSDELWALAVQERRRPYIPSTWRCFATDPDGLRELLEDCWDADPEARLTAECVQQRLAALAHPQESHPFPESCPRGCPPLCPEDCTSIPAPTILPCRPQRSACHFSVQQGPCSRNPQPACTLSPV
The data set can be described thus: binding assay. The following applies: protein on the cell surface.

Weaker means in comparison with the reference protein, sequence or condition of that experiment. Tags and fusion partners may be left off the protein sequences shown. For part of these data: Where cells or extracts were used, other partners may take part. For part of these data: A negative result means that nothing was seen under these conditions.

For “GGGAGGACGAUGCGGCGUGUACGAGCCCAAUAGGGAUGUUAGACUACACGCGGGGCAGACGACUCGCCCGA [Aptamer 8 (aptRan, control)]”, the binding result in data set [1] (control, lower affinity than Aptamers 1, 2 and 3, SEQ 77 printed with 5' T7 promoter sequence, label: 32P (gamma-32P) or fluorophore for confocal) was “binds more weakly”; in data set [2] (control, lowest binding on IGROV-1, no appreciable binding to OVCAR-8 by confocal, label: 32P (gamma-32P) or fluorophore for confocal), “no binding”. As to “GGGAGGACGAUGCGGGAAGCACGUCCCGAGGUAUAUGUUUCGUAGUCGCUGUGGGCAGACGACUCGCCCGA [Aptamer 2 (M2)]”, the binding result in data set [2] (2'-F pyrimidines (library chemistry), 32P cell binding, 37 C 30 min, high affinity on IGROV-1, OVCAR-8 and OVCA433, confocal binding and endocytosis in OVCAR-8, label: 32P (gamma-32P) or fluorophore for confocal) is reported as “binds”. Regarding “GGGAGGACGAUGCGGCGCGAAAGCCGAUUGGUGUGUCGUCUAUUAUCGUGUCGGGCAGACGACUCGCCCGA [Aptamer 1 (M1)]”, in data set [2] (2'-F pyrimidines (library chemistry), 32P cell binding, 37 C 30 min, high affinity on IGROV-1 and OVCAR-8, lower than Aptamer 2 on OVCA433, confocal binding and endocytosis in OVCAR-8, label: 32P (gamma-32P) or fluorophore for confocal), the binding result is recorded as “binds”. With “GGGAGGACGAUGCGGCCAUACCGUGAAGCCUUGGCUGCAUCGGGAUUUUGGUCGGCAGACGACUCGCCCGA [Aptamer 3]”, the binding result was “binds more weakly” in data set [1] (2'-F pyrimidines (library chemistry), lower affinity than Aptamers 1 and 2, higher than Aptamer 8, no value in text, label: 32P (gamma-32P)); “binds more weakly” in data set [2] (2'-F pyrimidines (library chemistry), 32P cell binding, 37 C 30 min, lower than Aptamers 1 and 2 on IGROV-1 and OVCAR-8, above Aptamer 8 on IGROV-1, label: 32P (gamma-32P)).

(Values after US20190071674.)
